Drawing on paper PMC5783870, this text covers binding for 2 molecules.

Protein sequences, listed by entry. Tags and fused reporters are not part of them. Residues count along the entry.
UniProt Q9QUK6, residues 26-835: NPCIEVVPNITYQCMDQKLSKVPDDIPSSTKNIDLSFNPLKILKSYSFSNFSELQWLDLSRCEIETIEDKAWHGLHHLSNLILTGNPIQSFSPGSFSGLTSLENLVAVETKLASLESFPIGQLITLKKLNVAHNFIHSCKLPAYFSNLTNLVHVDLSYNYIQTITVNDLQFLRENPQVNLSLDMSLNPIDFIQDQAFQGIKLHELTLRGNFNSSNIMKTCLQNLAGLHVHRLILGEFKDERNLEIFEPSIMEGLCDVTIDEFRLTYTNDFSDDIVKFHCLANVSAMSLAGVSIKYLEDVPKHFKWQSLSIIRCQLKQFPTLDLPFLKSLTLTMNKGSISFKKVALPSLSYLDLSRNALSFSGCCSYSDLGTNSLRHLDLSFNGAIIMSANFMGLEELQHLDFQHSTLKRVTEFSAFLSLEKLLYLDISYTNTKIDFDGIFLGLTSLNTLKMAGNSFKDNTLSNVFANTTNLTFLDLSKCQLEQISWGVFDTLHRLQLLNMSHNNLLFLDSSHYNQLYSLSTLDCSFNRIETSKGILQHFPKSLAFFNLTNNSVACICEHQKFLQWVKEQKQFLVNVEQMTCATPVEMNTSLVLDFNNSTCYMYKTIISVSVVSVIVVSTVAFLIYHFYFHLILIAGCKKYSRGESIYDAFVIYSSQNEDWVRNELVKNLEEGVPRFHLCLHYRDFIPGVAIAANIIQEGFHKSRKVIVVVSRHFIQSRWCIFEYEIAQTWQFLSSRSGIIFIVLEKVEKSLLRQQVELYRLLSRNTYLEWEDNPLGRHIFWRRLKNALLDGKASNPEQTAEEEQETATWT
UniProt O00206, residues 24-839: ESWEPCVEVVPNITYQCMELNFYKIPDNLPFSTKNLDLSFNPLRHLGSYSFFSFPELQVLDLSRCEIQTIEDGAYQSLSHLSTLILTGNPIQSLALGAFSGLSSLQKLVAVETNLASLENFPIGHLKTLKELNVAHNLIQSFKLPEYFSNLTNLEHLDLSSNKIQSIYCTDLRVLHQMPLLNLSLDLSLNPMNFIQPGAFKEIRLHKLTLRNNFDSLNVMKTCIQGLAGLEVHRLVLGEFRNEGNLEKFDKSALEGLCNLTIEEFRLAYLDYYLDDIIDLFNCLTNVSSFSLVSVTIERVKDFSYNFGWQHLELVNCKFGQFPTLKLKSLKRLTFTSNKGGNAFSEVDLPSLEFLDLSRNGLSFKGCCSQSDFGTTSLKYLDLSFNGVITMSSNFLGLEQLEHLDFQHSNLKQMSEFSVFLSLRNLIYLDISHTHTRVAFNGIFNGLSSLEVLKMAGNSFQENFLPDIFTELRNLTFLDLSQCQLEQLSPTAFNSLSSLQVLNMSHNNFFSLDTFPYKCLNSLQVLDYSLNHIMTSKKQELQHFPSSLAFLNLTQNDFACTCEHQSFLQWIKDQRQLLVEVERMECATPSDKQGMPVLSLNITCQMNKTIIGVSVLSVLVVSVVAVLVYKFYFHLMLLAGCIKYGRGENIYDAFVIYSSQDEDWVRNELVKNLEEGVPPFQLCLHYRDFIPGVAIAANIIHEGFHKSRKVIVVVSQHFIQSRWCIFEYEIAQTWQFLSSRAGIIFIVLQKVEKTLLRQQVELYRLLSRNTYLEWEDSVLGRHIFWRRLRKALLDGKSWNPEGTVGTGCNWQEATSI

Test [1] concerns the target Toll-like receptor 4 (TLR4), mouse, endogenous in liver tissue (mouse (endogenous in liver tissue of C57BL/6 mice)) (UniProt Q9QUK6). The test can be described thus: co-IP; liver tissue samples of mice (control diet, HFD, HFD with L6H21, MD2-/-) incubated with anti-TLR4 antibody at 4°C overnight, precipitated with protein G-Sepharose beads at 4°C for 3 hrs; MD2 detected by Western blot. (Immunoblotting shows a protein as a band on a membrane.)

In test [2] the target is Toll-like receptor 4 (TLR4), human, endogenous in HepG2 cells (human (endogenous in HepG2)) (UniProt O00206). The experiment in a line: co-IP; HepG2 cell protein samples (pre-treated with L6H21 0.4, 1.0 or 2.5 μM for 1 hr, then PA 200 μM for 24 hrs) incubated with anti-TLR4 antibody at 4°C overnight, precipitated with protein G-Sepharose beads at 4°C for 3 hrs; MD2 detected by Western blot.

No constants are given. Whether binding was seen depends on the method and setting. Binding seen in cells or lysates may run through a third protein. Some entries that bind do so weakly or less than the wild type.

B1: Myeloid differentiation factor 2 (MD2), mouse, endogenous in liver tissue (protein, UniProt Q9JHF9 19-160)
chain: EKQQWFCNSSDAIISYSYCDHLKFPISISSEPCIRLRGTNGFVHVEFIPRGNLKYLYFNLFISVNSIELPKRKEVLCHGHDDDYSFCRALKGETVNTSIPFSFEGILFPKGHYRCVAEAIAGDTEEKLFCLNFTIIHRRDVN
On to B1, for which, in test [1], the binding entry was “binds”.

B2: Myeloid differentiation factor 2 (MD2), human, endogenous in HepG2 cells (protein, UniProt Q9Y6Y9 19-160)
chain: QKQYWVCNSSDASISYTYCDKMQYPISINVNPCIELKRSKGLLHIFYIPRRDLKQLYFNLYITVNTMNLPKRKEVICRGSDDDYSFCRALKGETVNTTISFSFKGIKFSKGKYKCVVEAISGSPEEMLFCLEFVILHQPNSN
As to B2, the binding result in test [2] is “binds”.
